# Measurements reported in PubChem BioAssay AID720505 (Drosophila RNAi Screening Center, 2013)
# Purpose: 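Knock-downs that reduce calcium influx once internal stores are emptied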 (primary screen)
# System: Drosophila S2R+ cells
# Knock-down reagent: long dsRNA against Drosophila genes
# Challenge: thapsigargin (2 µM) in calcium-free buffer to empty internal stores, then 2 mM calcium added back
# Read-out: 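Stores emptied by 2 µM thapsigargin without calcium, then 2 mM calcium re-added; fluo-4 fluorescence followed by FLIPR in 384-well plates, per-well averaged endpoint, raw; two screen passes, some wells retested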
# Reading the numbers: calcium signal and retest calcium signal: higher = more calcium entry after store depletion
# Active means: 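About 1500 genes called as lowering calcium entry, by varying amounts, judged against per-plate control wells with STIM1 as positive and Rho1 as negative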
# Calls: active = called as lowering calcium entry; inactive = not called
# The screen tested about 20,000 reagents; below is a random part of those with a known target gene and a result. Of all reagents, about 2,100 (10%) are marked active. 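Raw plate signals without normalisation; calls rest on control-based scores that were not deposited; replicate 2 separates called from uncalled poorly.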 Not given: the amount of reagent, the time to read-out.
predicted target,DRSC id,"calcium signal, replicate 1","calcium signal, replicate 2","retest calcium signal, replicate 1","retest calcium signal, replicate 2",activity call
CG30062,DRSC21737,118,129,,,inactive
CG7798,DRSC07047,107,148,,,inactive
Octbeta1R,DRSC16134,156,152,,,inactive
nvd,DRSC22139,72.3,165,,,inactive
CG16753,DRSC08489,74.5,112,,,active
CG11560,DRSC09843,91.1,74.5,,,inactive
CG12910,DRSC06225,164,165,,,inactive
Cyp4s3,DRSC20241,95.1,93.4,,,inactive
Cyp4s3,DRSC22340,109,179,,,inactive
Pyroxd1,DRSC02098,149,135,,,inactive
CG15097,DRSC06526,106,121,,,inactive
Muc4B,DRSC18062,148,123,,,inactive
Muc4B,DRSC18063,115,104,,,inactive
nol,DRSC21425,158,118,,,inactive
Srg1,DRSC14640,106,132,,,inactive
Mekk1,DRSC16302,104,190,,,inactive
Mekk1,DRSC16303,213,171,,,inactive
CG2224,DRSC15429,154,144,,,inactive
CG15930,DRSC18107,70.3,126,,,active
Cpr92F,DRSC15819,256,176,,,inactive
Cp38,DRSC18453,241,141,,,inactive
beat-Vc,DRSC12927,,,,,active
beat-Vc,DRSC14849,150,72.9,,,inactive
CG1416,DRSC03706,142,80.7,,,inactive
Syx7,DRSC11763,108,107,,,inactive
CG3491,DRSC01934,117,158,,,inactive
Vha68-3,DRSC02809,99,110,,,inactive
Rpt4R,DRSC10791,92.4,94.5,,,inactive
neo,DRSC16316,113,137,,,inactive
CG14717,DRSC14940,142,115,,,inactive
niki,DRSC14285,134,82.7,,,inactive
CG31867,DRSC03338,162,147,,,inactive
Ns3,DRSC18607,72.4,82.8,94.6,83,active
Vha55,DRSC16896,91.8,133,,,inactive

Already shown: entries from further up.
predicted target,DRSC id,"calcium signal, replicate 1","calcium signal, replicate 2","retest calcium signal, replicate 1","retest calcium signal, replicate 2",activity call
CG2224,DRSC15429,154,144,,,inactive
CG15930,DRSC18107,70.3,126,,,active
Cpr92F,DRSC15819,256,176,,,inactive
